Laboratory results as given in publication PMC6759994.
Results are given in words; binding and its absence hold for the method and conditions named. In cells and extracts the contact can be indirect. Binding can be weak; no strength is given. Where a sequence is shown, tags or fusion partners need not be part of it.

T1: FtsZ with an HA tag, expressed in E. coli (Streptococcus mutans UA159) (UniProt Q8DVD9)
T1 sequence: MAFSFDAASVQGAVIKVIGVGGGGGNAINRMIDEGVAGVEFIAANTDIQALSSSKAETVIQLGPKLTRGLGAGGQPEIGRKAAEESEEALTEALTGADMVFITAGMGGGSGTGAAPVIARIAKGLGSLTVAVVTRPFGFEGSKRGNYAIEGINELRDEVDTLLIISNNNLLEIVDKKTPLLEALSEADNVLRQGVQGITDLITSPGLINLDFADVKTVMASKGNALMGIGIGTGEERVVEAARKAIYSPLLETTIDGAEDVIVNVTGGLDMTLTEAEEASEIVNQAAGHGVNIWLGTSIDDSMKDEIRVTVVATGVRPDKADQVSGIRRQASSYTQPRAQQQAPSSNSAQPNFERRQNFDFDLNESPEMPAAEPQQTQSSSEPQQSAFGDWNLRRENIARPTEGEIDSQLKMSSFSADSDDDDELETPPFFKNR

T2: FtsZ with a C-terminal HA tag, chromosomally encoded in S. mutans (strain FtsZHA) (Streptococcus mutans UA159) (UniProt Q8DVD9)
T2 sequence: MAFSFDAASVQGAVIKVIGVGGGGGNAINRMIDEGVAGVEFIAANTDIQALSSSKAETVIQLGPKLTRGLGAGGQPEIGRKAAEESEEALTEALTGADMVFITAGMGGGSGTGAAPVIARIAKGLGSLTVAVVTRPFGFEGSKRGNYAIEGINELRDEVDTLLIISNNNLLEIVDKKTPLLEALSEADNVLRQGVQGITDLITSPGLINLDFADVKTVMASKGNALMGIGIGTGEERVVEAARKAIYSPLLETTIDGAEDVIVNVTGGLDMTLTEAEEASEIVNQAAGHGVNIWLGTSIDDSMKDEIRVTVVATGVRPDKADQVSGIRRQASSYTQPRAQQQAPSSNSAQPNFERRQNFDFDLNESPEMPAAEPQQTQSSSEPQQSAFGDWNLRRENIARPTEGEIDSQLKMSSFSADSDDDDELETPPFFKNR

T3: RNA helicase CshA with a C-terminal HA tag, chromosomally encoded in S. mutans (strain CshAHA) (Streptococcus mutans UA159) (UniProt Q8DV90)
T3 sequence: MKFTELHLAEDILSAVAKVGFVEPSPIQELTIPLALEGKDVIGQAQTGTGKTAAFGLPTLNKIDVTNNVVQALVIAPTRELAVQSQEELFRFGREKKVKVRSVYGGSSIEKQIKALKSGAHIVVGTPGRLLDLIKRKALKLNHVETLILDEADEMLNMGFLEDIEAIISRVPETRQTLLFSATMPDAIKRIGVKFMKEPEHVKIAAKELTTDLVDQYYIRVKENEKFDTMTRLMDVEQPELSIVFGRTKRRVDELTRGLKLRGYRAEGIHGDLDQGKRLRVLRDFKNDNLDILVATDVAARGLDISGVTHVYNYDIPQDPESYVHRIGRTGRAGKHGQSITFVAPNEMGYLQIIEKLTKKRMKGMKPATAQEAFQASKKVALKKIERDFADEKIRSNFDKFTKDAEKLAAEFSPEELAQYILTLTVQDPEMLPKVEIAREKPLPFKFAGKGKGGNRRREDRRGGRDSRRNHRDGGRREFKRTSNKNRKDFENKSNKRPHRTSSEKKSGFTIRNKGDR


Columns and labels:
[1] = molecular target: T1, FtsZ with an HA tag, expressed in E. coli (Streptococcus mutans UA159); assay: co-IP; proteins co-expressed in E. coli BL21 from pET29b; 1 mg lysate protein immunoprecipitated with anti-HA antibodies, blot with anti-FLAG
[2] = molecular target: T2, FtsZ with a C-terminal HA tag, chromosomally encoded in S. mutans (strain FtsZHA) (Streptococcus mutans UA159); assay: co-IP; reciprocal: S. mutans crosslinked in vivo with formaldehyde; 1 mg cytoplasmic or membrane protein extract; anti-HA agarose (HA tagged proteins as baits), blot with anti-FLAG for RNase J2
[3] = molecular target: T3, RNA helicase CshA with a C-terminal HA tag, chromosomally encoded in S. mutans (strain CshAHA) (Streptococcus mutans UA159); assay: as above
[4] = molecular target: RNase J2 with a C-terminal 3x FLAG tag, chromosomally encoded in S. mutans (strain J2F) (Streptococcus mutans UA159); assay: co-IP; S. mutans crosslinked in vivo with formaldehyde; 1 mg cytoplasmic or membrane protein extract; anti-FLAG M2 affinity gel (RNase J2-3x FLAG as bait), blot with anti-HA

binding [4] | Molecule | further results
– | Full-length RNase J2 with a C-terminal 3x FLAG tag, expressed in E. coli (Streptococcus mutans UA159) (enzyme) | binding [1]: binds
– | RNase J2 with a C-terminal 3x FLAG tag, chromosomally encoded in S. mutans (strain J2F) (Streptococcus mutans UA159) (enzyme) | binding [2]: binds weakly; binding [3]: binds
no binding | Putative homoserine dehydrogenase SMU_965 with a C-terminal HA tag, chromosomally encoded in S. mutans (strain 965HA) (enzyme, UniProt Q8DUG5 1-428) MSIKIGLLGFGTVASGMPFLLKENKDKITAASGTKLEIAKVLVKDDDEKKRLLAAGNDFNFVTNVDDILSDDDIAIVVELMGRIEPAKTFITKALEAGKHVVSANKDLIATHGKELIRLAQDKGVAFYYEAAVAGGIPILRTLANSLTSDKVTRILGVLNGTSNFMMTKMVDEGWTYEAALKKAQELGYAESDPTNDVEGIDAAYKAVILSQFGFGMTIDFDQVVHQGISSITPDDVAMAQQLGYVIKLVGSVEETPSGIFAEVSPTFLPKSHPLASVNDVMNAVFVESIGIGESMYYGPGAGQKPTATSVVADVIRIARRIKDGNVGKCFNEFIRETKIAHPDDVKSHYYFAINTADEKGKMLRLAEIFNSEDISFEQVLQQKANGEQARVVIITHSLSKSQLVNVTEKLQAVADFKLLNTFKVLGE | –
binds weakly | FtsZ with a C-terminal HA tag, chromosomally encoded in S. mutans (strain FtsZHA) (protein, UniProt Q8DVD9 1-434) MAFSFDAASVQGAVIKVIGVGGGGGNAINRMIDEGVAGVEFIAANTDIQALSSSKAETVIQLGPKLTRGLGAGGQPEIGRKAAEESEEALTEALTGADMVFITAGMGGGSGTGAAPVIARIAKGLGSLTVAVVTRPFGFEGSKRGNYAIEGINELRDEVDTLLIISNNNLLEIVDKKTPLLEALSEADNVLRQGVQGITDLITSPGLINLDFADVKTVMASKGNALMGIGIGTGEERVVEAARKAIYSPLLETTIDGAEDVIVNVTGGLDMTLTEAEEASEIVNQAAGHGVNIWLGTSIDDSMKDEIRVTVVATGVRPDKADQVSGIRRQASSYTQPRAQQQAPSSNSAQPNFERRQNFDFDLNESPEMPAAEPQQTQSSSEPQQSAFGDWNLRRENIARPTEGEIDSQLKMSSFSADSDDDDELETPPFFKNR | –
no binding | Translation initiation factor IF-2 with a C-terminal HA tag, chromosomally encoded in S. mutans (strain InfBHA) (protein, UniProt Q8DVP9 1-916) MSKKRLYEIAKEIGKESKEIVEKAKSLGLEVKSHASSVEESDAKRIVESFTVSVEPKAVTPTSKVEKEAKAQEGSVAAEPKAAATKPAGRPRPQNRNFKAEREARAKAEAERRQNNGERRNQNKGQNNRQKDNRNHGSQDRRNDNRNNRNRQNDNRRDNRNHFQNRQEASKSQPTGPRFDFKARAAALKAEQNAEYSRQSETRFHEAQEAKRQAAQAKEKAKKLNQKEQPTVEAAATAAPQAQPQTVEQVTHPAAVDTRRKKQARPDKSRDFSHENEDGPKQNKHKKNRNKQNQVRNQKNSNWNKKNKKSKNNRNHNANLKPVTERKFHELPKEFEYTEGMTVAEIAKRIKREPAEIVKKLFMMGVMATQNQSLDADTIELLMVDYGIEAHQKVEVDTADIERFFVEDDYLNPKNMVERAPVVTIMGHVDHGKTTLLDTLRNSRIATGEAGGITQHIGAYQIEEGGKKITFLDTPGHAAFTSMRARGASVTDITILIVAADDGVMPQTIEAINHSKAADVPIIVAINKIDKPGANPERVIGELAEYGVISTAWGGDSEFVEISAKFGQNIEELLETVLLVAEIQELKADPTVRAIGTVIEARLDKGKGAVATLLVQQGTLHVQDPIVVGNTFGRVRAMTNDLGRRVKVAAPSTPVSITGLNEAPMAGDHFAVYEDEKAARAAGEERAKRALLKQRQLTHRVSLDNLFDTLKAGEVKSVNVIIKADVQGSVEALAASLLKIDVEGVKVNVVHSAVGAINESDITLAEASNAVIIGFNVRPTPQARQQAEADEVEIRLHSIIYKVIEEVEDAMKGMLDPEFEEKIIGEALIRETFKVSKVGTIGGFMVTNGKITRDSSARVIRDGVVVFDGKLASLKHYKDDVKEVGNGQEGGLMIENYNDIKIDDTIEAYIMEEIKR | –
no binding | Cell division protein FtsA with an N-terminal HA tag, chromosomally encoded in S. mutans (strain FtsAHA) (protein, UniProt Q8DVE0 1-453) MARDGFFTGLDIGTSSIKVLVAEFINGSMNVIGVSNVKSSGVKDGIIIDIDTAAEAIKSAIKEAEEKAGMSISKVNVGLPANLLQIEPTQGMIPVPSESKEIKDEDVDSVVRSALTKSITPEREVISLIPEEFIVDGFQGIRDPRGMMGIRLEMRGLIYTGPSTILHNLRKTVERAGIEVENIIISPLALTKSVLNEGEREFGATVIDMGGGQTTVASMRAQELQFTNTYAEGGDYVTKDISKVLKTSHQVAEALKFNFGEANVAEASSTETVQVEVVGERNPVEITERYLSEIISARVRHLLDRIKQDLERGRLLDLPGGIVIVGGAAIMPGVVEIAQEIFGFNVKLHVPNQVGIRNPMFANIISIVEYVGTLTEVDILAQGAVSGDEKLRRKPIDIKPSGVAPKTRSFAQPQESTTLESQLEQLPPQQKEANEPKQKVGDRLRGIFGSMFD | –
binds | RNA helicase CshA with a C-terminal HA tag, chromosomally encoded in S. mutans (strain CshAHA) (enzyme, UniProt Q8DV90 1-517) MKFTELHLAEDILSAVAKVGFVEPSPIQELTIPLALEGKDVIGQAQTGTGKTAAFGLPTLNKIDVTNNVVQALVIAPTRELAVQSQEELFRFGREKKVKVRSVYGGSSIEKQIKALKSGAHIVVGTPGRLLDLIKRKALKLNHVETLILDEADEMLNMGFLEDIEAIISRVPETRQTLLFSATMPDAIKRIGVKFMKEPEHVKIAAKELTTDLVDQYYIRVKENEKFDTMTRLMDVEQPELSIVFGRTKRRVDELTRGLKLRGYRAEGIHGDLDQGKRLRVLRDFKNDNLDILVATDVAARGLDISGVTHVYNYDIPQDPESYVHRIGRTGRAGKHGQSITFVAPNEMGYLQIIEKLTKKRMKGMKPATAQEAFQASKKVALKKIERDFADEKIRSNFDKFTKDAEKLAAEFSPEELAQYILTLTVQDPEMLPKVEIAREKPLPFKFAGKGKGGNRRREDRRGGRDSRRNHRDGGRREFKRTSNKNRKDFENKSNKRPHRTSSEKKSGFTIRNKGDR | –
